Results are given in words; binding and its absence hold for the method and conditions named. Some binding calls cover weakened binding; strength is not graded here.

The assay has as its target T1, activin (UniProt P08476 311-426).
T1 sequence (looked up): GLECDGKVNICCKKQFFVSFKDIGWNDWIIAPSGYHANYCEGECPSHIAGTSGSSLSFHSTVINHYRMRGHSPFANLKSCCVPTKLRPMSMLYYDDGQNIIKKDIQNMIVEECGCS
The experiment in a line: Biacore SPR. For orientation: Surface plasmon resonance follows binding to a sensor surface in real time, without labels.

B1: FS315-GAG3-mFc (Fc fusion)
chain: GNCWLRQAKNGRCQVLYKTELSKEECCSTGRLSTSWTEEDVNDNTLFKWMIFNGGAPNCIPCKETCENVDCGPGKKCRMNKKNKPRCVCAPDCSNITWKGPVCGLDGKTYRNECALLKARCKEQPELEVQYQGRCKKTCRDVFCPGSSTCVVDQTNNAYCVTCNRICPEPASSEQYLCGNDGVTYSSACHLRKATCLLGRSIGLAYEGKCIKAKSCEDIQCTGGKKCLWDFKVGRGRCSLCDELCPDSKSDEPVCASDNATYASECAMKEAACSSGVLLEVKHSGSCNSISEDTEEEEEDEDQDYSFPISSILEWGAPGGGGGAAAAAGGGGGGAPGGGGGAAAAAGGGGGGAPGGGGGAAAAAGGGGGGAPGCKPCICTVPEVSSVFIFPPKPKDVLTITLTPKVTCVVVDISKDDPEVQFSWFVDDVEVHTAQTQPREEQFNSTFRSVSELPIMHQDWLNGKEFKCRVNSAAFPAPIEKTISKTKGRPKAPQVYTIPPPKEQMAKDKVSLTCMITDFFPEDITVEWQWNGQPAENYKNTQPIMDTDGSYFVYSKLNVQKSNWEAGNTFTCSVLHEGLHNHHTEKSLSHSPGK
notes: also called FS315-mFc; FS315-Fc
B1: the binding entry was “binds”.

Values taken from US20180305421A1 (SHIRE HUMAN GENETIC THERAPIES, published 2018).
